No constants are given. Whether binding was seen depends on the method and setting. Some results given as binding are weak or reduced against the parent protein; the word gives no strength.
Molecular target: T1, human DKK1 antigen (Sino Biological, 10170-H08H) (human) (UniProt O94907)
T1 sequence (looked up): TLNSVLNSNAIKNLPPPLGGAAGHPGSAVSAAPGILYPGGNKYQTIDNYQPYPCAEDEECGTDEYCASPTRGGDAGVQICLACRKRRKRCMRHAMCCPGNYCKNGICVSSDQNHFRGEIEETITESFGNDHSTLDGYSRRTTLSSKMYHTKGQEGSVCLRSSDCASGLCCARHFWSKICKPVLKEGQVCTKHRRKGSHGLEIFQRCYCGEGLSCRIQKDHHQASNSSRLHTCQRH
Experiment: competitive ELISA against LRP6 for DKK1

binding: binds
B1: chi-22 (antibody, V domains shown)
VH: QVTLKESGPGILQPSQTLSLTCSFSGFSLSTSGMGVGWIRQPSGKGLEWLAHIWWDDVKRYNPALKSRLTISKDTSSSQVFLKIASVDTTDTASYYCSRIARSPTGFAYWGQGTL
VL: QIVLTQSPVIMSASPGEKVTMTCSASSSVSYMYWYQQKPGSSPRLLIYDTSNLASGVPVRFSGSGSGTSYSLTISRMEAEDAATYYCQQWSSYPPALTFGAGTKLELK

From US20250122271A1, “ANTI-DKK1 ANTIBODY, PHARMACEUTICAL COMPOSITION THEREOF, AND USE THEREOF” (SHANGHAI JUNSHI BIOSCIENCES CO., LTD., priority 2022, published 2025)
